Measurements reported in PubChem BioAssay AID652272 (Drosophila RNAi Screening Center, 2013)

- Assay: 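Finding fly genes that regulate Hedgehog signal transduction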 (primary screen)
- Cell system: Drosophila clone 8 (Cl8) cells
- Reagent: long dsRNA against Drosophila genes
- Measured: 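Plate reader light from a firefly reporter under a ptc promoter fragment that responds to Hedgehog, with Renilla light as transfection reference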
- Reading the numbers: firefly Hh reporter signal: higher = more ptc reporter light; Renilla reference signal: higher = more Renilla control light
- Call rule: 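Hit when the z-score averaged over two replicates is under -2 or over +3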
- Calls: active = hit: reporter lowered or raised; inactive = not a hit
The screen tested about 21,000 reagents; this is an unselected part of those with a known target gene and a result. In the full data, 503 (2.4%) were called active. 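Raw plate light values, not normalised; calls rest on replicate z-scores that were not deposited; hits include reporter decreases as well as increases.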 A number with no mark means an inactive call. A plus sign joins genes that one reagent is predicted to hit. Not given: the amount of reagent, the time to read-out.

{"gene":"CG31051","DRSC id":"DRSC15034","firefly Hh reporter signal, replicate 1":1.64e5,"firefly Hh reporter signal, replicate 2":99179,"Renilla reference signal, replicate 1":3418,"Renilla reference signal, replicate 2":2311}
{"gene":"ppk23 (pickpocket 23)","DRSC id":"DRSC20110","firefly Hh reporter signal, replicate 1":71658,"firefly Hh reporter signal, replicate 2":2.40e5,"Renilla reference signal, replicate 1":1323,"Renilla reference signal, replicate 2":7373}
{"gene":"Cpr50Cb (Cuticular protein 50Cb)","DRSC id":"DRSC06975","firefly Hh reporter signal, replicate 1":92397,"firefly Hh reporter signal, replicate 2":64840,"Renilla reference signal, replicate 1":2233,"Renilla reference signal, replicate 2":5746}
{"gene":"Ing5 (Inhibitor of growth family member 5)","DRSC id":"DRSC03188","firefly Hh reporter signal, replicate 1":1.21e5,"firefly Hh reporter signal, replicate 2":79029,"Renilla reference signal, replicate 1":4169,"Renilla reference signal, replicate 2":2304}
{"gene":"Ubc10 (Ubiquitin conjugating enzyme 10)","DRSC id":"DRSC07568","firefly Hh reporter signal, replicate 1":49280,"firefly Hh reporter signal, replicate 2":34725,"Renilla reference signal, replicate 1":956,"Renilla reference signal, replicate 2":3364}
{"gene":"Taf11 (TBP-associated factor 11)","DRSC id":"DRSC03448","firefly Hh reporter signal, replicate 1":87536,"firefly Hh reporter signal, replicate 2":57053,"Renilla reference signal, replicate 1":2436,"Renilla reference signal, replicate 2":5607}
{"gene":"CR31824 (pseudo)","DRSC id":"DRSC01517","firefly Hh reporter signal, replicate 1":92387,"firefly Hh reporter signal, replicate 2":2.33e5,"Renilla reference signal, replicate 1":2193,"Renilla reference signal, replicate 2":10644}
{"gene":"CG15695","DRSC id":"DRSC15117","firefly Hh reporter signal, replicate 1":6.69e5,"firefly Hh reporter signal, replicate 2":77456,"Renilla reference signal, replicate 1":32999,"Renilla reference signal, replicate 2":1883}
{"gene":"Bace (beta-site APP-cleaving enzyme)","DRSC id":"DRSC02197","firefly Hh reporter signal, replicate 1":5.20e5,"firefly Hh reporter signal, replicate 2":83170,"Renilla reference signal, replicate 1":3800,"Renilla reference signal, replicate 2":3800}
{"gene":"CG7685","DRSC id":"DRSC16285","firefly Hh reporter signal, replicate 1":5.50e5,"firefly Hh reporter signal, replicate 2":80562,"Renilla reference signal, replicate 1":29269,"Renilla reference signal, replicate 2":2736}
{"gene":"CG30099","DRSC id":"DRSC07039","firefly Hh reporter signal, replicate 1":92776,"firefly Hh reporter signal, replicate 2":57789,"Renilla reference signal, replicate 1":2469,"Renilla reference signal, replicate 2":4587}
{"gene":"CG43104 (retired record)","DRSC id":"DRSC05624","firefly Hh reporter signal, replicate 1":1.17e5,"firefly Hh reporter signal, replicate 2":2.41e5,"Renilla reference signal, replicate 1":3392,"Renilla reference signal, replicate 2":9532}
{"gene":"Tmhs (Tetraspan membrane protein in hair cell stereocilia)","DRSC id":"DRSC08231","firefly Hh reporter signal, replicate 1":1.10e5,"firefly Hh reporter signal, replicate 2":97351,"Renilla reference signal, replicate 1":5219,"Renilla reference signal, replicate 2":4053}
{"gene":"Gem4b + Gem4c","DRSC id":"DRSC17294","firefly Hh reporter signal, replicate 1":4.41e5,"firefly Hh reporter signal, replicate 2":2.51e5,"Renilla reference signal, replicate 1":20973,"Renilla reference signal, replicate 2":4312}
{"gene":"Trap1","DRSC id":"DRSC05019","firefly Hh reporter signal, replicate 1":1.71e5,"firefly Hh reporter signal, replicate 2":1.36e5,"Renilla reference signal, replicate 1":6981,"Renilla reference signal, replicate 2":5120}
{"gene":"CG5916","DRSC id":"DRSC15917","firefly Hh reporter signal, replicate 1":1.12e5,"firefly Hh reporter signal, replicate 2":79179,"Renilla reference signal, replicate 1":4720,"Renilla reference signal, replicate 2":3154}
{"gene":"CG13293","DRSC id":"DRSC09967","firefly Hh reporter signal, replicate 1":47141,"firefly Hh reporter signal, replicate 2":38588,"Renilla reference signal, replicate 1":4456,"Renilla reference signal, replicate 2":3005}
{"gene":"CG32073","DRSC id":"DRSC09087","firefly Hh reporter signal, replicate 1":1.25e5,"firefly Hh reporter signal, replicate 2":1.99e5,"Renilla reference signal, replicate 1":3905,"Renilla reference signal, replicate 2":8848}
{"gene":"CG32073","DRSC id":"DRSC09894","firefly Hh reporter signal, replicate 1":46948,"firefly Hh reporter signal, replicate 2":60106,"firefly Hh reporter signal, replicate 3":68439,"Renilla reference signal, replicate 1":6321,"Renilla reference signal, replicate 2":5824}
{"gene":"Csk (C-terminal Src kinase)","DRSC id":"DRSC12861","firefly Hh reporter signal, replicate 1":45059,"firefly Hh reporter signal, replicate 2":1.40e5,"Renilla reference signal, replicate 1":9863,"Renilla reference signal, replicate 2":2960}
{"gene":"Csk (C-terminal Src kinase)","DRSC id":"DRSC15223","firefly Hh reporter signal, replicate 1":75637,"firefly Hh reporter signal, replicate 2":58941,"Renilla reference signal, replicate 1":3879,"Renilla reference signal, replicate 2":2848}

2 entries from above, arranged by “Renilla reference signal, replicate 1”, descending.
{"gene":"CG5916","DRSC id":"DRSC15917","firefly Hh reporter signal, replicate 1":1.12e5,"firefly Hh reporter signal, replicate 2":79179,"Renilla reference signal, replicate 1":4720,"Renilla reference signal, replicate 2":3154}
{"gene":"CG13293","DRSC id":"DRSC09967","firefly Hh reporter signal, replicate 1":47141,"firefly Hh reporter signal, replicate 2":38588,"Renilla reference signal, replicate 1":4456,"Renilla reference signal, replicate 2":3005}
